# Assay results taken from article doi:10.1101/523670.
# Results are given in words; binding and its absence hold for the method and conditions named. Binding seen in cells or lysates may run through a third protein. A yes stands for co-enrichment or nearness to the bait. Other partners may have been found. A no says only that the protein was not detected with the bait.
# Target: Chm7-GFP (endogenously expressed) (S. cerevisiae)
# Experiment: affinity purification with mass spectrometry
row,Binder,binding
1,"Snf7 (protein, UniProt P39929 1-240) MWSSLFGWTSSNAKNKESPTKAIVRLREHINLLSKKQSHLRTQITNQENEARIFLTKGNKVMAKNALKKKKTIEQLLSKVEGTMESMEQQLFSIESANLNLETMRAMQEGAKAMKTIHSGLDIDKVDETMDEIREQVELGDEISDAISRPLITGANEVDEDELDEELDMLAQENANQETSKIVNNNVNAAPISENKVSLPSVPSNKIKQSENSVKDGEEEEDEEDEDEKALRELQAEMGL",binds
2,"Vps20 (protein, UniProt Q04272 1-221) MGQKSSKVHITKTDRAILEVKRSKDEIHKFTRRTDNLILVEKSQLKDLIRKNPENYKSNMKVRFLLKRIHYQEHLLQQASDQLINLENMVSTLEFKMVEKQFINGLKNGNEILKKLNKEFSNVDELMDDVQDQIAYQNEINETLSRSLVGTSNYEDDLDKELDALESELNPEKMNNAKVANMPSTEGLPSLPQGEQTEQKEREEFATEERSDTKEPLALLS",binds
3,"Heh1 (protein, UniProt Q03707 1-834) MNSDLEYLEDGFDPNSMKVATLRRILVENNVDFPSNARKNALVGLFDEKVKPQIPQLRKMYLNVRPSDEGIVKMDRPSSSPSIASPRRSRRARREKSASPMAKQFKKNRILDDVSNDDDDDDDDDDDNDKKDDPLIVPSGTDTDEVDDEEDDVITSSSNKSDTNDFQQNSDTRKKRKDPDSDDWSESNSKENKIDNKHLNLLSSDSEIEQDYQKAKKRKTSDLNQEHGNGSAILGKLSVKTPIKNTNRKPVSMDNFNDSLTSSGTENDPFVPNIRHNPKELGTANGTGHSTPLSKLKVSASFADKLPQKEVPSTILVPEVEQQEPSQSERTPSLFSSEGSGSESEAPLLPEITTPGPHQPMGNTSNNVVEMIDTDSSNLVSDEDEVLVPTRIETPQLPTEKDVEKCEARVQELQEEVNEQLEHENGSEFDVKQGSGKVGNRHKFKRALKFLSKSLLALFLFCIFIVIPLLFGLWYREQRLLIGYCGHEVPSHRVSGNSFEFIQKLDNLLQDYRPKCIPCPPNGICYPYLKLKCKPDYKLAPSRLDFLEIIPAQGKCVKDDKKQQLVSEVVEKSLEFLRAKNAQISCGDGKDDIESGMTEDALYQIFNEARAPWIRDDEFEDLWIQVIKDLTEEPEILWRQLSPTDNNIGGNSNNIIKTNDVPRQKRHLPEKFISKTRNFRSTSKKYIGMKCRFEREIYQTYKKFQRPIWLMFLLIVISKVIEIKLKNYYRKKARIEELVTQTMEKLKFQKIKSMSDPKENAYLSIVQLRDIFLSDIVDLKYKNQLWSEVVKYLEHNNSNIKSNLTEIRGEIMKCWEWIGPMELNEPKDSAENKI",binds
4,"Nur1 (protein, UniProt Q12066 1-484) MGSNDLINEAYDDSEVVGEERESKSAWMKRWYQLLTSPLDLQLVINEKLEMINWDAYAKSLAKPLGNFLTILFFIIRLLQDNLIKPNYYKLNVKSGAFDLSKSNKLKEFDYLWEISSSFQNNNQFYAFQSWYFVTLRFLNNLFRFTIFILLSLNLYVSCKFMFGYFKTYNLFHLKKEFNSPNLTKHNLKDLSKEYYEDIYKQSLWSMLKHFFRGSRDDGPHVNQNEDEIFFQLRKWIPTNFMINLFVSFSPTAIVFLSFSDVSFTSAIAIVFHQYILDYIITKRFQRSVDDDLILSSAALQEYEDKHIMARINQCSNIDTLSSAMGTRSKTPRIFTTHSLCGEEIREVYNYEKREFEALPKMTESVPGSRETRIKDYGGISQVSDHQSHPIGFHYSPRMSPYYRDKVLDNNLAQSSSNENLEKGGAYLPNQDQNRPSKSLSPLRKTPLSARQKRFEGSEFNVLNKNDINSILRSPKKKKNYHKR",binds
5,"Heh2 (protein, UniProt Q03281 1-663) MDHRNLDPKTLKVSQLRRVLVENDVAFPANARKPVLVKLFEEKVRQRLQSSPEASKVRTSIQKVVKSGAKNADRKKTLKSKKLESSSSESKTVKDENVETNKRKREQISTDNEAKMQIQEEKSPKKKRKKRSSKANKPPESPPQSKSDGKATSADLTSELETVEELHKKDSSDDKPRVKELPKPELPNLKVSNEFLAQLNKELASAATENYDHSIKSTDLSSIRIETEEPVGPSTGAETRNESEVMENINLEVQPEVKEAKEELTKISETFDNQDEEDTSRLSSKKNIRSPKGRTRHFIANKTKRGIDIMKPFIAHLFIWLWNGAIFLSIICPILFGLWYREQRIQVGYCGHEKPLKSLAISAFPQTERVDSVLQAYRPNCLECPEHGICSSFMNVECEPGYEPKSSILETYGIIPFPKYCAKDESKEKEVDELVWKVNEYLKKKNAQHECGEGENLFESGETETKLYDIFSHSRPSWESQREFNDHWKNVLEILKKKDDIIWLPLDFETNGKREKSKSNNTNYIYRSTSKKWVTLQCHLEGDIQEYITKYGGSLFITLGVLFLIKKIQSTLDNYVQGEQIIEKLVKEAIDKLKDVKKNKGEEPFLTTVQLRATLLSDIPNIKEQNNLWAQTKEKIMKEQSENIELYLLEENGEIMTCWEWKE",no binding
